Test results published in PubChem BioAssay AID220 (DTP/NCI, 2004).
The list does not hold the whole screen: it gathers tests that were run many times, whatever their T/C, doses with no T/C, and many T/C values between a quarter and a half above the control. Other doses and runs of a compound stand elsewhere. T/C gives the treated animals as a percentage of the vehicle group. Schedules are NCI's codes, read here as Q, the interval in days (D) or hours (H), X, the number of doses. Some doses were run more than once; their values stand side by side, smallest first. Some values lie below zero, which means that the treated tumours became smaller. Some T/C values are followed by the survivors on the day toxicity was checked, most often the fifth; without a count, all were alive then. Some entries give survivors of the animals treated and no T/C: the source files T/C as zero there, which appears to mark a toxic dose or a test without result, not a measured value. Survivors were counted at the toxicity check, usually on the fifth day, unless a day is given; later deaths do not show.

Tested on: CD8F1 mice, subcutaneous mammary adenocarcinoma, T/C%
Assay: NCI In Vivo Anticancer Drug Screen. Data for tumor model Mammary Adenocarcinoma CD8F1 (subcutaneous) in CD8F1
Settings: higher T/C = larger tumour
In short: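 Ratio of treated to vehicle-control outcome, based on either survival or tumor size, in mice bearing transplantable tumors given the test compound.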

[1] = T/C endpoint: median tumor weight change, dose: 1000.0 mg/kg/injection, schedule: Q01DX001 (ip), vehicle: saline with Tween-80
[2] = T/C endpoint: median tumor weight (est.), dose: 400.0 mg/kg/injection, schedule: Q07DX005 (ip), vehicle: saline with Tween-80
[3] = T/C endpoint: median tumor weight (est.), dose: 400.0 mg/kg/injection, schedule: Q07DX005 (ip), vehicle: Klucel (hydroxypropylcellulose) (HPC)
[4] = T/C endpoint: median tumor weight change, dose: 250.0 mg/kg/injection, schedule: Q01DX001 (ip), vehicle: suspension in saline

Nc1nc(N)c(N=O)c(Nc2ccc(Br)cc2)n1
T/C (T/C endpoint: median tumor weight change, dose: 62.5 mg/kg/injection, schedule: Q01DX001 (ip), vehicle: saline with Tween-80, evaluated on day 26): 49 % of control
T/C (T/C endpoint: median tumor weight change, dose: 62.5 mg/kg/injection, schedule: Q01DX001 (ip), vehicle: saline with Tween-80, evaluated on day 30): 44 and 50 % of control
T/C (T/C endpoint: median tumor weight change, dose: 62.5 mg/kg/injection, schedule: Q01DX001 (ip), vehicle: saline with Tween-80, evaluated on day 31): 12 % of control
T/C (T/C endpoint: median tumor weight change, dose: 62.5 mg/kg/injection, schedule: Q01DX001 (ip), vehicle: saline with Tween-80, evaluated on day 37): 41 % of control
T/C (T/C endpoint: median tumor weight change, dose: 125.0 mg/kg/injection, schedule: Q01DX001 (ip), vehicle: saline with Tween-80, evaluated on day 26): 20 % of control
T/C (T/C endpoint: median tumor weight change, dose: 125.0 mg/kg/injection, schedule: Q01DX001 (ip), vehicle: saline with Tween-80, evaluated on day 30): 23 and 31 % of control
T/C (T/C endpoint: median tumor weight change, dose: 125.0 mg/kg/injection, schedule: Q01DX001 (ip), vehicle: saline with Tween-80, evaluated on day 31): 17 % of control
T/C (T/C endpoint: median tumor weight change, dose: 125.0 mg/kg/injection, schedule: Q01DX001 (ip), vehicle: saline with Tween-80, evaluated on day 37): 45 % of control
T/C (T/C endpoint: median tumor weight change, dose: 250.0 mg/kg/injection, schedule: Q01DX001 (ip), vehicle: saline with Tween-80, evaluated on day 26): 16 % of control
T/C (T/C endpoint: median tumor weight change, dose: 250.0 mg/kg/injection, schedule: Q01DX001 (ip), vehicle: saline with Tween-80, evaluated on day 30): 4 and 29 % of control
T/C (T/C endpoint: median tumor weight change, dose: 250.0 mg/kg/injection, schedule: Q01DX001 (ip), vehicle: saline with Tween-80, evaluated on day 31): 15 % of control
T/C (T/C endpoint: median tumor weight change, dose: 250.0 mg/kg/injection, schedule: Q01DX001 (ip), vehicle: saline with Tween-80, evaluated on day 37): 14 % of control
T/C (T/C endpoint: median tumor weight change, dose: 500.0 mg/kg/injection, schedule: Q01DX001 (ip), vehicle: saline with Tween-80, evaluated on day 26): 19 % of control
T/C (T/C endpoint: median tumor weight change, dose: 500.0 mg/kg/injection, schedule: Q01DX001 (ip), vehicle: saline with Tween-80, evaluated on day 30): 11 and 22 % of control
T/C (T/C endpoint: median tumor weight change, dose: 500.0 mg/kg/injection, schedule: Q01DX001 (ip), vehicle: saline with Tween-80, evaluated on day 31): -5 % of control
T/C (T/C endpoint: median tumor weight change, dose: 500.0 mg/kg/injection, schedule: Q01DX001 (ip), vehicle: saline with Tween-80, evaluated on day 37): -10 % of control
T/C (T/C endpoint: median tumor weight change, dose: 1000.0 mg/kg/injection, schedule: Q01DX001 (ip), vehicle: saline with Tween-80, evaluated on day 26): 10 % of control
survivor count [1]: 3 of 10 on day 30, 4 of 10 on day 30, 5 of 10 on day 37

CN(C)c1nc(N(C)C)nc(N(C)C)n1
T/C (T/C endpoint: mean tumor weight, dose: 400.0 mg/kg/injection, schedule: Q07DX006 (ip), vehicle: saline, evaluated on day 38): 139 % of control [7 of 10 alive]
survivor count (T/C endpoint: mean tumor weight, dose: 750.0 mg/kg/injection, schedule: Q07DX006 (ip), vehicle: saline): 3 of 10
T/C (T/C endpoint: median tumor weight (est.), dose: 12.5 mg/kg/injection, schedule: Q07DX005 (ip), vehicle: saline with Tween-80, evaluated on day 30): 139 % of control [8 of 10 alive]
survivor count [2]: 3 of 10
survivor count (T/C endpoint: median tumor weight (est.), dose: 512.0 mg/kg/injection, schedule: Q07DX005 (ip), vehicle: acid diluted with saline): 4 of 10 on day 30
survivor count (T/C endpoint: median tumor weight (est.), dose: 512.0 mg/kg/injection, schedule: Q07DX005 (ip), vehicle: saline with Tween-80): 3 of 10 and 5 of 10
T/C (T/C endpoint: median tumor weight change, dose: 200.0 mg/kg/injection, schedule: Q01DX001 (ip), vehicle: acid diluted with saline, evaluated on day 35): 131 % of control
survivor count (T/C endpoint: median tumor weight change, dose: 1600.0 mg/kg/injection, schedule: Q01DX001 (ip), vehicle: acid diluted with saline): 1 of 10 on day 35 and 2 of 10 on day 33

O=C(Nc1ccc(Cl)c(Cl)c1)Nc1c(Oc2ccc(Cl)c(Cl)c2)ccc(Cl)c1S(=O)(=O)O
T/C (T/C endpoint: median tumor weight (est.), dose: 50.0 mg/kg/injection, schedule: Q07DX005 (ip), vehicle: saline, evaluated on day 30): 126 % of control

Oc1c(Cl)cc(C(c2cc(Cl)c(O)c(Cl)c2)C(c2cc(Cl)c(O)c(Cl)c2)c2cc(Cl)c(O)c(Cl)c2)cc1Cl
survivor count [3]: 3 of 10 on day 30

CC1CN1P1(N2CC2C)=NP(N2CC2C)(N2CC2C)=NP(N2CC2C)(N2CC2C)=N1 (stereo not drawn)
T/C (T/C endpoint: mean tumor weight, dose: 12.5 mg/kg/injection, schedule: Q07DX005 (ip), vehicle: saline, evaluated on day 37): 143 % of control
survivor count (T/C endpoint: mean tumor weight, dose: 200.0 mg/kg/injection, schedule: Q07DX005 (ip), vehicle: saline): 1 of 6

O=C1C(=O)c2cccnc2-c2ncccc21
survivor count (T/C endpoint: median tumor weight change, dose: 6.25 mg/kg/injection, schedule: Q01DX001 (ip), vehicle: Klucel (hydroxypropylcellulose) (HPC)): 4 of 10 on day 33
survivor count (T/C endpoint: median tumor weight change, dose: 12.5 mg/kg/injection, schedule: Q01DX001 (ip), vehicle: Klucel (hydroxypropylcellulose) (HPC)): 4 of 10 on day 33
survivor count (T/C endpoint: median tumor weight change, dose: 25.0 mg/kg/injection, schedule: Q01DX001 (ip), vehicle: Klucel (hydroxypropylcellulose) (HPC)): 0 of 10 on day 33
survivor count (T/C endpoint: median tumor weight change, dose: 50.0 mg/kg/injection, schedule: Q01DX001 (ip), vehicle: Klucel (hydroxypropylcellulose) (HPC)): 0 of 10 on day 33

NC1(C(=O)O)CCCC1
T/C (T/C endpoint: mean tumor weight, dose: 12.5 mg/kg/injection, schedule: Q07DX008 (ip), vehicle: saline, evaluated on day 51): 135 % of control
T/C (T/C endpoint: median tumor weight (est.), dose: 12.5 mg/kg/injection, schedule: Q07DX005 (ip), vehicle: saline, evaluated on day 30): 139 % of control

C=C(C)/C([O-])=N/[N+](C)(C)CC(O)CCCCCCCCCCCC (stereo not drawn)
survivor count (T/C endpoint: median tumor weight change, dose: 500.0 mg/kg/injection, schedule: Q01DX001 (ip), vehicle: saline): 6 of 10 on day 25
survivor count (T/C endpoint: median tumor weight change, dose: 1000.0 mg/kg/injection, schedule: Q01DX001 (ip), vehicle: saline): 0 of 10 on day 25
survivor count (T/C endpoint: median tumor weight change, dose: 2000.0 mg/kg/injection, schedule: Q01DX001 (ip), vehicle: saline): 0 of 10 on day 25

[N-]=[N+]=C1N=CN=C1c1ncn[nH]1
T/C (T/C endpoint: median tumor weight (est.), dose: 25.0 mg/kg/injection, schedule: Q07DX005 (ip), vehicle: carboxymethylcellulose (CMC), evaluated on day 30): 127 % of control

Cn1cnc([N+](=O)[O-])c1[Se]c1nc(N)nc2nc[nH]c12
T/C (T/C endpoint: median tumor weight (est.), dose: 100.0 mg/kg/injection, schedule: Q07DX005 (ip), vehicle: water, evaluated on day 30): 142 % of control

Cn1ccc(=Nc2ccc(NC(=O)c3ccc(N=c4ccn(C)c5ccc([N+](=O)[O-])cc45)cc3[N+](=O)[O-])cc2)cc1
T/C (T/C endpoint: median tumor weight (est.), dose: 25.0 mg/kg/injection, schedule: Q07DX005 (ip), vehicle: saline with Tween-80, evaluated on day 30): 144 % of control
T/C (T/C endpoint: median tumor weight (est.), dose: 50.0 mg/kg/injection, schedule: Q07DX005 (ip), vehicle: saline with Tween-80, evaluated on day 30): 127 % of control
survivor count [2]: 6 of 10 on day 30
survivor count (T/C endpoint: median tumor weight (est.), dose: 800.0 mg/kg/injection, schedule: Q07DX005 (ip), vehicle: saline with Tween-80): 1 of 10 on day 30

C=CS(C=C)=NS(=O)(=O)c1ccc(C)cc1
T/C (T/C endpoint: median tumor weight (est.), dose: 25.0 mg/kg/injection, schedule: Q07DX005 (ip), vehicle: Klucel (hydroxypropylcellulose) (HPC), evaluated on day 30): 141 % of control
survivor count (T/C endpoint: median tumor weight (est.), dose: 50.0 mg/kg/injection, schedule: Q07DX005 (ip), vehicle: Klucel (hydroxypropylcellulose) (HPC)): 2 of 10 on day 30
survivor count (T/C endpoint: median tumor weight (est.), dose: 100.0 mg/kg/injection, schedule: Q07DX005 (ip), vehicle: Klucel (hydroxypropylcellulose) (HPC)): 0 of 10 on day 30

C[C@]12C=CC(=O)C=C1CC[C@@H]1[C@@H]2C(=O)C[C@@]2(C)[C@H]1CC[C@]2(O)C(=O)CO
T/C (T/C endpoint: mean tumor weight, dose: 50.0 mg/kg/injection, schedule: Q01DX009 (ip), vehicle: saline, evaluated on day 28): 140 % of control [9 of 10 alive]
survivor count (T/C endpoint: mean tumor weight, dose: 300.0 mg/kg/injection, schedule: Q07DX005 (ip), vehicle: saline): 4 of 10

COc1cc2c[n+](C)c3c(c2cc1OC)Cc1cc2c(cc1-3)OCO2
survivor count [4]: 2 of 10 on day 29
survivor count (T/C endpoint: median tumor weight change, dose: 500.0 mg/kg/injection, schedule: Q01DX001 (ip), vehicle: suspension in saline): 0 of 10 on day 29
survivor count (T/C endpoint: median tumor weight change, dose: 1000.0 mg/kg/injection, schedule: Q01DX001 (ip), vehicle: suspension in saline): 0 of 10 on day 29

O=C1[C@H]2CCC[C@H]2[C@H]2CCC[C@@H]12
survivor count [1]: 1 of 10 on day 28

CN(C)N=Nc1cn[nH]c1C(N)=O
survivor count [3]: 0 of 10 on day 30
survivor count (T/C endpoint: median tumor weight (est.), dose: 800.0 mg/kg/injection, schedule: Q07DX005 (ip), vehicle: Klucel (hydroxypropylcellulose) (HPC)): 0 of 10 on day 30

C=C1C(=O)OCC1C(=O)O (stereo not drawn)
T/C (T/C endpoint: median tumor weight change, dose: 31.25 mg/kg/injection, schedule: Q01DX001 (ip), vehicle: suspension in saline, evaluated on day 49): 130 % of control
survivor count [4]: 0 of 10 on day 49
